Results are given in words; binding and its absence hold for the method and conditions named. In cells and extracts the contact can be indirect. Some results given as binding are weak or reduced against the parent protein; the word gives no strength. For some assays here: Sequences can lack the tags named with a protein.
Experiments:
[1] = biological target: EDEM1-HA (UniProt Q925U4); assay: co-IP; HEK 293 cells expressing EDEM1-HA or EDEM2-HA with FLAG-TXNDC11 or FLAG-PDI; lysed in mild conditions (1% NP-40, 50 mM Tris/HCl pH 8, 150 mM NaCl); immunoprecipitated with anti-EDEM1 or anti-EDEM2, immunoblotted with anti-FLAG
[2] = biological target: T1, EDEM2-HA (UniProt Q9BV94); assay: as above
T1 sequence: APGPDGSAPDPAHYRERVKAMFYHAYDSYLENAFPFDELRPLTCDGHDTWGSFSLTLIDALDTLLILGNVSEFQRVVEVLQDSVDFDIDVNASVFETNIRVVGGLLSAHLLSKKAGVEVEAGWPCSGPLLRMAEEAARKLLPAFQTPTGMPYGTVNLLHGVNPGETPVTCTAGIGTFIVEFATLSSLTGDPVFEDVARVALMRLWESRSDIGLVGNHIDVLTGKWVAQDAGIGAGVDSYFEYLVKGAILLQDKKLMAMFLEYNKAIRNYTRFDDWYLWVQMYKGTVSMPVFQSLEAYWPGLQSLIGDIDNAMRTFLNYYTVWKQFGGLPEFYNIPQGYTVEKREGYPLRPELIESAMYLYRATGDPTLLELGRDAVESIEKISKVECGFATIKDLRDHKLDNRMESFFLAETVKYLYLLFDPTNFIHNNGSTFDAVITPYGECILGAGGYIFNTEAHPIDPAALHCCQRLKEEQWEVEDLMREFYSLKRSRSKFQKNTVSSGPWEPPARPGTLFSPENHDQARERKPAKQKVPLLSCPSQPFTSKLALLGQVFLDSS

Sequences of proteins named here, by UniProt entry; tags and fusion partners are left off. Residues count along the entry.
UniProt Q925U4: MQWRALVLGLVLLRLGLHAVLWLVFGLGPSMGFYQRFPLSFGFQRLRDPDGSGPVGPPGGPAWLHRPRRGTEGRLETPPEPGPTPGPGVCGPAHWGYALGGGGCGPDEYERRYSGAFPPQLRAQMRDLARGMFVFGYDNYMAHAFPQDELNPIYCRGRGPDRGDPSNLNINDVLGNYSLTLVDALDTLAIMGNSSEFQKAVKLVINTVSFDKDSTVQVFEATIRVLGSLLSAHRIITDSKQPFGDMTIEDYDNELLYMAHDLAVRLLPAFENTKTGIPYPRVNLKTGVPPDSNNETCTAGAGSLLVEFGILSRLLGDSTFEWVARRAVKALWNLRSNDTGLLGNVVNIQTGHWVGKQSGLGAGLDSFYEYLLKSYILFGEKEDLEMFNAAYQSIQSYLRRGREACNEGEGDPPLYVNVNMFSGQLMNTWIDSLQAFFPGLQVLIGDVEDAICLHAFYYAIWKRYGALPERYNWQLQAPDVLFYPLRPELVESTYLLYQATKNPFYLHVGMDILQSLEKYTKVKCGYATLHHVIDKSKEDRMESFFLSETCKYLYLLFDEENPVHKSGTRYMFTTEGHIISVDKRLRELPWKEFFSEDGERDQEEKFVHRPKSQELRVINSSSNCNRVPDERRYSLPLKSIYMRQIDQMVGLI
UniProt P07237, residues 18-508: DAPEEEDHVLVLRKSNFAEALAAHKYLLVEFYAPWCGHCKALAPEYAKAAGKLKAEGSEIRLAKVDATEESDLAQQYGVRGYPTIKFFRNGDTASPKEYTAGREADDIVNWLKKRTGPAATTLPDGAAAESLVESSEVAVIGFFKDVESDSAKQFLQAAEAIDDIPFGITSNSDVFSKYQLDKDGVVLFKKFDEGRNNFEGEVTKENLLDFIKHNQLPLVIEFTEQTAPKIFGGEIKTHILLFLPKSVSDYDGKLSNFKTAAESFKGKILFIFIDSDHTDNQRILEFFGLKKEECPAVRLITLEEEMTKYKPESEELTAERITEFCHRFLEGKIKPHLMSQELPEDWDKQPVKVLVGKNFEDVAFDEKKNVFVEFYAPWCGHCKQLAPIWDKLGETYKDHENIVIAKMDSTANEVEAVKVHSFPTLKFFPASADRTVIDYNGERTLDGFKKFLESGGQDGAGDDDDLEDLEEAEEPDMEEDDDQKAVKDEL

- binding [1]: binds weakly
- binding [2]: binds
Substance: FLAG-PDI (from UniProt P07237 18-508) (enzyme)
